From article PMC6110506
For at least one entry, the source does not settle the construct or the ends of the probe. Where cells or extracts were used, other partners may take part. For some assays here: No signal at the amounts used counts as a negative. For some assays here: The comparison behind a weaker result is the experiment's own reference, which may not be listed here. For some assays here: At least one verdict rests on a figure or table, not on a statement of the authors.

Tests used:
[1] = test system: LBC (Large Boundary Complex, ~1000 kD, contains GAF, Clamp, Mod(mdg4)); assay: EMSA; settings: 20 ul, nuclear extract from 6-18 hr embryos (1-3 ul), ~10 fmol/ul probe stock, 0.1-0.25 mg/ml poly(dA-dT):poly(dA-dT), 30 min at room temperature, gel at 4 C, protein in an extract
[2] = test system: LBC (Large Boundary Complex, ~1000 kD, contains GAF, Clamp, Mod(mdg4)); assay: competition with a labelled probe; settings: 20 ul, nuclear extract from 6-18 hr embryos (1-3 ul), ~10 fmol/ul probe stock, 0.1-0.25 mg/ml poly(dA-dT):poly(dA-dT), 30 min at room temperature, gel at 4 C, protein in an extract
[3] = test system: GAF + Clamp + Mod(mdg4); assay: EMSA supershift; settings: gel filtration fractions 45 and 47, GAF and Mod(mdg4) antibodies supershift, Clamp antibody inhibits; 20 ul, nuclear extract from 6-18 hr embryos (1-3 ul), ~10 fmol/ul probe stock, 0.1-0.25 mg/ml poly(dA-dT):poly(dA-dT), 30 min at room temperature; gel at 4 C; protein in an extract; label: 5'-32P (unlabeled as competitor)
[4] = 25x-100x cold against labeled HS3, label: 5'-32P (unlabeled as competitor)
[5] = fold weaker than G3+4, label: 5'-32P

CAGACGACGTCGCAGGTGAGTGGCGAGCAGAGCAGCATGGAGCGAGCCGTACCGCTGTGGAATACCGCACTGTCGTAGGCACGAGCGCGAGCGAGAGAGGCCAAGAGCACGCTCTCTTTCACATCCATGCGTACTGCCGCTGTCTCGCCTCTTCTTCTTCATTTTCAGCTCGGTACGCATGGGGCTCCATTAAATCCACT (double strand) [HS3mPho]
binding result ([1]; Pho mutations have no effect, label: 5'-32P (unlabeled as competitor)): binds
binding result ([2]; 25x-100x cold against labeled HS3, competes as well as wild type, label: 5'-32P (unlabeled as competitor)): binds

CAAAGAGCGACACGTGAACAGGTGCAGTAGTAAATATAAGCAAAGAGAGTTGGAAAGAGTATTGGGGCACCCCAGGCTTTACACTTTATGCTTCCGGCTCGTATGTTGTGTGGAATTGTGAGCGGATAACAATTTCACA (double strand) [G3+LacZ]
binding result ([2]; 10x-100x cold against labeled G3+4, poor competitor, label: none (competitor)): binds more weakly

CAAAGAGCGACACGTGAACAGGTGCAGTAGTAAATATAAGCAAAGAGAGTTGGAAAGAGTATTGGCTAAGAGCGTCCGCTCACTAACACATAGATAAATTAAGAGAGACGTGATAAGAGAACCGCACGCACACC (double strand) [G3+4 (GAGA3+4)]
binding result ([1]; relative to G3 and G4 65 bp probes (higher affinity), binding and competition, label: 5'-32P (unlabeled as competitor)): binds
binding result ([2]; 10x-100x cold G3+4 against labeled G3+4, label: 5'-32P (unlabeled as competitor)): binds
binding result [2, 4]: binds

CAAAGAGCGACACGTGAACAGGTGCAGTAGTAAATATAAGCAAAGAGAGTTGGAAAGAGTATTGGCTAAGAGCGTCCGCTCACTAACACATAGATAAATTAAGAGAGACGTGATAAGAGAACCGCACGCACACCACCGCAAAATCCAATTGGAAGAGAGCGACTGCTTGAGTGTATTGGTTAGCAAGAGAGCGGCTAAGGTTTGATGGTTTGATTGGAATTCAGTTGCCGTTCG (double strand) [dHS1]
binding result ([1]; label: 5'-32P): binds

ACCCTCTATCACCGTGAACAGGTGCAGTAGTAAATATAAGCAAAACAAATTGGAAAGAGTATTGGCTAAGAGCGACCGCTCACTAACACATAGATAAATTAAACAAAACGTGATAAGAGAACCGCACGCACACCACCGCAAAATCCAATTGGAAACAAACGACTGCTTGAATGTATTGGTAAGCAAACAAACGGCTAGGTTTGATGGTTTGATTGGAATTCAGTTGCCGTTCG (double strand) [dHS1 GAGAmut3-6]
binding result ([1]; binding largely abrogated, label: 5'-32P): binds more weakly

CAAAGAGCGACACGTGAACAGGTGCAGTAGTAAATATAAGCAAAGAGAGTTGGAAAGAGTATTGG (double strand) [G3 (GAGA3)]
binding result [1, 5]: binds more weakly

ATTGGCTAAGAGCGTCCGCTCACTAACACATAGATAAATTAAGAGAGACGTGATAAGAGAACCGC (double strand) [G4 (GAGA4)]
binding result [1, 5]: binds more weakly

GTGGAATACCGCACTGTCGTAGGCACGAGCGCGAGCGAGAGAGGCCAAGAGCACGCTCTCTTTCACATCCATGATGGCTGCCGCTGTCTCGCCTCTTCTT (double strand) [HS3 probe #2]
binding result ([1]; slow shift resembling LBC, identity confirmed only with 200 bp HS3, label: 5'-32P): binds

CAGACGACGTCGCAGGTGAGTGGCGAGCAGAGCAGCATGGAGCGAGCATGGCCGCTGTGGAATACCGCACTGTCGTAGGCACGAGCGCGAGCGAGAGAGGCCAAGAGCACGCTCTCTTTCACATCCATGATGGCTGCCGCTGTCTCGCCTCTTCTTCTTCATTTTCAGCTCGGCCATCATGGGGCTCCATTAAATCCACT (double strand) [HS3]
binding result [3]: binds
binding result ([1]; label: 5'-32P (unlabeled as competitor)): binds
binding result [2, 4]: binds

CAGACGACGTCGCAGGTGAGTGGCGAGCAGAGCAGCATGGAGCGAGCATGGCCGCTGTGGAATACCGCACTGTCGTAGGCACGAGCGCGAGCTTTTTAGGCCAAGAGCACGTTTTTTTTCACATCCATGATGGCTGCCGCTGTCTCGCCTCTTCTTCTTCATTTTCAGCTCGGCCATCATGGGGCTCCATTAAATCCACT (double strand) [HS3mGAF]
binding result ([1]; LBC shift abrogated, label: 5'-32P (unlabeled as competitor)): no binding
binding result ([2]; 25x-100x cold against labeled HS3, poor competitor, label: 5'-32P (unlabeled as competitor)): binds more weakly

ACAATTGCCAAATAATACAGATCGATTTAGAGCGAGATGACAATAGAGAGGCGATCTCTCTCGTATACGAGTCTTGAAAAGAAAGAGAAGGCGAACGGTGCTGGCTTAGAGAGAGATGGCAATACTAATTAACTGCAAATACATTTCCGCCATTTTGTTGGCGCTAAAAGTAACGGAAATTCGAGATGCTTTTAGGGCTG (double strand) [CES roX2]
binding result ([2]; 25x-100x cold against labeled HS3, label: none (competitor)): binds
